Results are given in words; binding and its absence hold for the method and conditions named. Binding seen in cells or lysates may run through a third protein. Some results given as binding are weak or reduced against the parent protein; the word gives no strength. Where a sequence is shown, tags or fusion partners need not be part of it.
Experiments:
GST-MOB1A (human) = biological target: T1, GST-MOB1A (human) (UniProt Q9H8S9); experiment: pull-down; ~120 pmol purified GST-MOB3C or GST-MOB1A mixed with cleared HeLa lysate (20 mM Tris-HCl pH 8, 100 mM NaCl, 5 mM MgCl2), 37 °C 15 min then ice 30 min, glutathione agarose 90 min at 4 °C; RNase P on the beads detected by cleavage of pre-tRNA^Arg (n-Tr21) at 15, 22 and 30 min; only the target …
T1 sequence: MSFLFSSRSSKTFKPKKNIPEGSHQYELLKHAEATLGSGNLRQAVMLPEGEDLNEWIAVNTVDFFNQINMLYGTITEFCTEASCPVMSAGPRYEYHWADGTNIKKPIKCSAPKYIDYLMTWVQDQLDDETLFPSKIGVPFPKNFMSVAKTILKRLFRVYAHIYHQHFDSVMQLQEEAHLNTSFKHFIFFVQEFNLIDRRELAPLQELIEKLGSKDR

By UniProt entry, the sequences of proteins in these tests, tags left out. Where a name states a change or a piece, a line headed by the entry shows the natural chain unless it says otherwise.
UniProt Q99575: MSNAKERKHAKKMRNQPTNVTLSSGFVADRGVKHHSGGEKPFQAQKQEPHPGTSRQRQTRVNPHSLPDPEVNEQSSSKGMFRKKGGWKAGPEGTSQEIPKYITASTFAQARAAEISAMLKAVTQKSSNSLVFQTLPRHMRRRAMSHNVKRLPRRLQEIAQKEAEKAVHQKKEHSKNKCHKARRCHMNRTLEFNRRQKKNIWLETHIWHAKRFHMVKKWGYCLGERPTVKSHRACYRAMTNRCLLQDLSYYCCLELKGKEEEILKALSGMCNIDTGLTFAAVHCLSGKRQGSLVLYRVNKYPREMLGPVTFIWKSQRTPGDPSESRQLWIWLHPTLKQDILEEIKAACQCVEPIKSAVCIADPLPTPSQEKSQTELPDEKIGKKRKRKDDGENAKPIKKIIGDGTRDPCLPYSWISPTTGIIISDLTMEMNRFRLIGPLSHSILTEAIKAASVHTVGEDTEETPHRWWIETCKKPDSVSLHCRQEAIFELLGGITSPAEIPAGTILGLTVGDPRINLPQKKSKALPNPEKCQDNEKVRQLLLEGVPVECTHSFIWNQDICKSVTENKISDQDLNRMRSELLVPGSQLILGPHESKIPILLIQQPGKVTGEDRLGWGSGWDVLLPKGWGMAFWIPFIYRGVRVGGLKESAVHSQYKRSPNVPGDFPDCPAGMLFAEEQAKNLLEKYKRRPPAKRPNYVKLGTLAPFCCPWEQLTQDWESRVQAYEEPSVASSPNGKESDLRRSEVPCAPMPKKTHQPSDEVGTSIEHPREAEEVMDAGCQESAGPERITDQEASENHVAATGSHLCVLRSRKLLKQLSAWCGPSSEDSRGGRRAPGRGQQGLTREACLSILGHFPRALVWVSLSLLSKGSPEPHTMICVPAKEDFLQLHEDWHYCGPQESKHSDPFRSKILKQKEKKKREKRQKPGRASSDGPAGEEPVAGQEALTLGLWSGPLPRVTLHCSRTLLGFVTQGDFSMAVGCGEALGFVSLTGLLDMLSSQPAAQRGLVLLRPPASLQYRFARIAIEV

GST-MOB3C (human) = biological target: T2, GST-MOB3C (human) (UniProt Q70IA8); experiment: as above
T2 sequence: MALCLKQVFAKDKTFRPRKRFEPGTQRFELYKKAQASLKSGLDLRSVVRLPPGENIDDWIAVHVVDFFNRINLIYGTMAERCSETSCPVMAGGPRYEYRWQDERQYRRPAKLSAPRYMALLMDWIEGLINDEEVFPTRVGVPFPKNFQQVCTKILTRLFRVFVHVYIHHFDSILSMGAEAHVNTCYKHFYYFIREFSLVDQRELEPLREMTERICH

- binding (GST-MOB1A (human)): no binding (tested: ∼120 pmol GST-MOB1A)
- binding (GST-MOB3C (human)): binds
Substance: RNase P complex (from UniProt Q99575 1-1024; O95707 1-220; O95059 1-124; Q9BUL9 1-199; P78346 1-268; P78345 1-283; O75818 1-363; O75817 1-140; Q9H633 1-154; Q969H6 1-163)
